Laboratory results: PubChem BioAssay AID1508588 (Peter MacCallum Cancer Centre, 2020)

- Assay: 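Genome-wide search for knock-downs that heighten vemurafenib action in melanoma cells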 (primary screen)
- System: human WM266.4 melanoma cells (BRAF V600 mutant)
- Knock-down reagent: siRNA pool against human genes, 40 nM
- Timing: 96 h from transfection to read-out
- Treatment: vemurafenib 300 nM (about IC25), added 48 h after transfection, for 48 h; comparison arm got DMSO vehicle only
- Detection: 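Ratios to non-targeting siRNA for cell gain, counted as DAPI nuclei after minus before drug and averaged over two replicates, and for absorbance-read medium lactate per cell; both binned into fold-change classes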
- Reading the numbers: cell gain with vemurafenib: higher = more cell gain than with non-targeting siRNA; lactate per cell with vemurafenib: higher = more lactate made per cell
- Hit rule: 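a knock-down counts as enhancing when its fold-change classes with vehicle and with vemurafenib, taken together, show a stronger drug effect on cell gain or lactate per cell; exact class pairs not stated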
- Calls: active = enhances vemurafenib effect; inactive = no enhancement seen
This is an unselected part of about 18,000 reagents tested. 790 of them (4.4%) were called active. 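Calls rest on a combination of fold-change classes in drug and vehicle arms, not all shown here.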 Unmarked entries are inactive. Some reagents were tested in more than one well and are listed for each.

gene knocked down,PubChem SID,cell gain with vemurafenib,lactate per cell with vemurafenib
RGL2 (ral guanine nucleotide dissociation stimulator like 2),SID135621746,0.4,0.84
PYCARD (PYD and CARD domain containing),SID134310417,0.54,0.74
PEX10 (peroxisomal biogenesis factor 10),SID134311867,0.77,0.7
LINC02915 (long independently transcribed non-coding RNA 2915),SID135625089,0.28,0.58
LIN7B (lin-7 cell polarity scaffold B),SID135621814,0.41,0.94
PPCDC (phosphopantothenoylcysteine decarboxylase),SID135623045,0.36,1.6
VWCE (von Willebrand factor C and EGF domains),SID152151104,0.89,1.06
TRIP13 (thyroid hormone receptor interactor 13),SID152147633,0.7,1.17
FNIP1 (folliculin interacting protein 1),SID135625163,0.56,1.64
FAM120AOS (family with sequence similarity 120 member A opposite strand),SID152151970,0.4,2.04
DAZ1 (deleted in azoospermia 1),SID152155812,0.53,0.7
OR4D9 (olfactory receptor family 4 subfamily D member 9),SID135624858,0.45,0.85
CEMP1 (cementum protein 1),SID135625679,0.48,1.16
SPRYD7 (SPRY domain containing 7),SID134318053,0.52,1.38
ANKRD36B (ankyrin repeat domain 36B),SID152152886,1.01,0.76
VPS18 (VPS18 core subunit of CORVET and HOPS complexes),SID134317412,0.67,0.8
PTGIS (prostaglandin I2 synthase),SID152152511,0.81,0.76
COPS4 (COP9 signalosome subunit 4),SID134324655,0.65,0.81
ADPGK (ADP dependent glucokinase),SID134311981,0.42,1
TRAPPC14 (trafficking protein particle complex subunit 14),SID134320454,0.17,0.85
FAM131C (family with sequence similarity 131 member C),SID152146959,0.4,1.21
GKAP1 (G kinase anchoring protein 1),SID134320151,0.61 (active),0.44
ASB3 (ankyrin repeat and SOCS box containing 3),SID134321392,0.36,1.12
CAVIN2 (caveolae associated protein 2),SID152155121,0.52,1.2
UQCC3 (ubiquinol-cytochrome c reductase complex assembly factor 3),SID135625705,0.89,0.84
NHERF4 (NHERF family PDZ scaffold protein 4),SID135623260,1.11,0.69
HILPDA (hypoxia inducible lipid droplet associated),SID152150244,0.75,0.98
GKN2 (gastrokine 2),SID152149009,0.41,1.89
PTGDR (prostaglandin D2 receptor),SID134311141,0.89,0.84
DRD2 (dopamine receptor D2),SID135620997,0.58,0.75
MAP4K2 (mitogen-activated protein kinase kinase kinase kinase 2),SID56478700,0.48,0.98
IFNA1 (interferon alpha 1),SID134316972,0.5,1.31
CDH4 (cadherin 4),SID134309983,0.43,1.2
"ABHD2 (abhydrolase domain containing 2, acylglycerol lipase)",SID152147750,0.54,0.68
SPRR1A (small proline rich protein 1A),SID134323834,0.41,1.33
GPHN (gephyrin),SID135623024,0.89,0.62
BAZ1B (bromodomain adjacent to zinc finger domain 1B),SID152149179,0.84,1.12
SPEN (spen family transcriptional repressor),SID152152288,0.51,0.82
TMEM167A (transmembrane protein 167A),SID152148379,0.14,3.04
FOXE1 (forkhead box E1),SID134316179,1.05,0.64
DNAJC9 (DnaJ heat shock protein family (Hsp40) member C9),SID134321774,0.76,1.08
NDUFAF4 (NADH:ubiquinone oxidoreductase complex assembly factor 4),SID152150047,1.21,0.82
COPG1 (coat protein complex I subunit gamma 1),SID134322947,-0.04,0.77
JRKL (JRK like),SID134315845,1.11,1.03
SLC25A16,SID134312521,0.59,0.28
DPPA4 (developmental pluripotency associated 4),SID152147459,0.89,0.41
ZNF428 (zinc finger protein 428),SID134322505,1.27,0.7
MSRB1 (methionine sulfoxide reductase B1),SID134324513,0.62,0.9
CYP27C1 (cytochrome P450 family 27 subfamily C member 1),SID152153455,0.53,0.82
BAHCC1 (BAH domain and coiled-coil containing 1),SID152155739,0.7,1.08
ARHGEF11 (Rho guanine nucleotide exchange factor 11),SID134314932,0.73,0.16
USP22 (ubiquitin specific peptidase 22),SID135621138,0.57,1
SCLT1 (sodium channel and clathrin linker 1),SID152151305,0.66 (active),0.44
CCDC6 (coiled-coil domain containing 6),SID135621960,0.34,0.55
TRPM5,SID134311840,1.17,0.52
PTPN3 (protein tyrosine phosphatase non-receptor type 3),SID134314126,0.34,1.16
SBNO2 (strawberry notch homolog 2),SID135620878,0.72,0.59
LRRC41 (leucine rich repeat containing 41),SID152156003,0.67,0.74
SELENOO (selenoprotein O),SID135621762,0.78,1.25
ENTREP3 (endosomal transmembrane epsin interactor 3),SID134323895,0.63,1.17
SOX14 (SRY-box transcription factor 14),SID134322872,0.2,2.29
DBNDD2 (dysbindin domain containing 2),SID152149465,0.75,1.06
TCIRG1,SID134316487,0.08,0.76
"SMN2 (survival of motor neuron 2, centromeric)",SID135622412,0.84,0.68
FOXJ2 (forkhead box J2),SID135621755,0.49,1.34
PIP5K1B (phosphatidylinositol-4-phosphate 5-kinase type 1 beta),SID152154468,0.87,0.67
CSRNP1 (cysteine and serine rich nuclear protein 1),SID134317868,0.11,1.29
CNKSR2 (connector enhancer of kinase suppressor of Ras 2),SID134324135,0.86,0.5
GP2 (glycoprotein 2),SID135623927,0.84,1.12
CLYBL (citramalyl-CoA lyase),SID152152070,1.14,0.69
MLLT3 (MLLT3 super elongation complex subunit),SID135623842,0.9,1.27
MOCS1 (molybdenum cofactor synthesis 1),SID135622263,0.57,1
CCDC91 (coiled-coil domain containing 91),SID152156539,1.21,0.72
INTS2 (integrator complex subunit 2),SID134318189,0.21,1.81
CYP7B1 (cytochrome P450 family 7 subfamily B member 1),SID134313775,0.76,0.36
GEMIN6 (gem nuclear organelle associated protein 6),SID134319291,0.24,1.34
TBL1XR1 (TBL1X/Y related 1),SID135622421,0.82,0.7
MTERF2 (mitochondrial transcription termination factor 2),SID152147402,0.83,0.96
ZNF407 (zinc finger protein 407),SID152150310,0.34,0.84
POMK (protein O-mannose kinase),SID56479008,0.55,1.31
POMK (protein O-mannose kinase),SID56479008,0.55,1.48
COLCA1 (colorectal cancer associated 1),SID152150973,0.94,0.7
MMP16 (matrix metallopeptidase 16),SID152154796,0.68,0.44
LALBA (lactalbumin alpha),SID135622356,0.7 (active),0.48

Not a retest: an excerpt of the list.
gene knocked down,PubChem SID,cell gain with vemurafenib,lactate per cell with vemurafenib
JRKL (JRK like),SID134315845,1.11,1.03
SLC25A16,SID134312521,0.59,0.28
DPPA4 (developmental pluripotency associated 4),SID152147459,0.89,0.41
ZNF428 (zinc finger protein 428),SID134322505,1.27,0.7
MSRB1 (methionine sulfoxide reductase B1),SID134324513,0.62,0.9
